Assay results: the supplement of paper PMC12067093, “Discovery and optimisation of a covalent ligand for TRIM25 and its application to targeted protein ubiquitination” (Chemical Science, 2025)
The other results are listed elsewhere or left out.
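Further: competitive profiling in live THP-1 cells: cysteine peptides tagged with an iodoacetamide desthiobiotin (IA-DTB) probe, intensity after compound treatment relative to DMSO-treated cells.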

Sequences of proteins named here, by UniProt entry; tags and fusion partners are left off. A change or cut given only in a name is not applied to a line headed by its entry.
UniProt P40938, whole entry, looked up: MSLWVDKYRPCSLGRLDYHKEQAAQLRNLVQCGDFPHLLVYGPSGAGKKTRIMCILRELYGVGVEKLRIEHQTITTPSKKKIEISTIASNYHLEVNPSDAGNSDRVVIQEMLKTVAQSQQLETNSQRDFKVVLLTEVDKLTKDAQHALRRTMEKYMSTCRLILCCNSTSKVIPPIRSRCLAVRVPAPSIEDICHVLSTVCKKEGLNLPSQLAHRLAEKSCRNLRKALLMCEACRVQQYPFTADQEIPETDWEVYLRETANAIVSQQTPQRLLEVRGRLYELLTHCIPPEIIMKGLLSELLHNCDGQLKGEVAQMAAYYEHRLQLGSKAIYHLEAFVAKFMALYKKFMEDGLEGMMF
UniProt Q9H6W3: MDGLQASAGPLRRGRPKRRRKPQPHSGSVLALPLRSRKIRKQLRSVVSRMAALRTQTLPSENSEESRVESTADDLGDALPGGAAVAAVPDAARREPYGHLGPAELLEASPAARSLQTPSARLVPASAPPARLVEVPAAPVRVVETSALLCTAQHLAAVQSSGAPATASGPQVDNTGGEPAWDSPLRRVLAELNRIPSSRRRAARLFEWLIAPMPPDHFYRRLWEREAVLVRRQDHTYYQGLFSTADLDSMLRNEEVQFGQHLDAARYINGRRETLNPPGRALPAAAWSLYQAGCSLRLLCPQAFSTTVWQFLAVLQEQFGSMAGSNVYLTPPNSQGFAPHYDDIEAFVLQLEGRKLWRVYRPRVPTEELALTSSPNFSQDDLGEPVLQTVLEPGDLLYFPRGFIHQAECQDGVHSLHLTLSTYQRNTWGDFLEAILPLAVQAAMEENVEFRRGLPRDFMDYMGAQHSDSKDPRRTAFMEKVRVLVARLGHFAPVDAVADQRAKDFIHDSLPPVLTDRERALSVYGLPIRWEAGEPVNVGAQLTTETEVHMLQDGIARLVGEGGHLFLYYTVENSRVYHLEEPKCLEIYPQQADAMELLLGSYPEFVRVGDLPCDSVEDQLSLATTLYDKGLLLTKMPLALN
UniProt O43567: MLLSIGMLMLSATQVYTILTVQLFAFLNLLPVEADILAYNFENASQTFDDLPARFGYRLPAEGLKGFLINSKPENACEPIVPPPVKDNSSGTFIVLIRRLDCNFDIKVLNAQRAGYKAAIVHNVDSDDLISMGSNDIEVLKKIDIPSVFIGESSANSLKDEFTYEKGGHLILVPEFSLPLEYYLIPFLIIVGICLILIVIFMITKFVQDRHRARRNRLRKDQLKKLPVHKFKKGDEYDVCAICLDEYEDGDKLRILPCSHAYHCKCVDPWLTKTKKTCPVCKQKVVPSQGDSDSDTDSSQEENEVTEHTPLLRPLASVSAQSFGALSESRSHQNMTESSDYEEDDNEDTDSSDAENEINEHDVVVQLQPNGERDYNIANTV
UniProt Q9Y508: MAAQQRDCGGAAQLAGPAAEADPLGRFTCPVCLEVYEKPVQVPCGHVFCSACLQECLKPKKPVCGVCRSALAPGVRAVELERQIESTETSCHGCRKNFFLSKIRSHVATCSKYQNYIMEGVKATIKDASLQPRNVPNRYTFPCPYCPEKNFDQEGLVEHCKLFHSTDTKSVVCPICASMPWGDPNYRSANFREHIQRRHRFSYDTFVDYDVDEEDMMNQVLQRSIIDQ
UniProt P40937, whole entry, looked up: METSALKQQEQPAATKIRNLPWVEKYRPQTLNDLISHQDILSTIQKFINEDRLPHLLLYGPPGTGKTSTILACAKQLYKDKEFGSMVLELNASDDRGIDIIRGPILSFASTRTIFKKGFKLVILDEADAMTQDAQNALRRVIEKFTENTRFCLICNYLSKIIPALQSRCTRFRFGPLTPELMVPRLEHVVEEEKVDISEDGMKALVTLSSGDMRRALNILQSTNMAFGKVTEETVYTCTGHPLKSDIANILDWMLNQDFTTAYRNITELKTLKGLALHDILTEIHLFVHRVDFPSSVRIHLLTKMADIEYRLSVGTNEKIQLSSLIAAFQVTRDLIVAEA
UniProt Q8WZ73: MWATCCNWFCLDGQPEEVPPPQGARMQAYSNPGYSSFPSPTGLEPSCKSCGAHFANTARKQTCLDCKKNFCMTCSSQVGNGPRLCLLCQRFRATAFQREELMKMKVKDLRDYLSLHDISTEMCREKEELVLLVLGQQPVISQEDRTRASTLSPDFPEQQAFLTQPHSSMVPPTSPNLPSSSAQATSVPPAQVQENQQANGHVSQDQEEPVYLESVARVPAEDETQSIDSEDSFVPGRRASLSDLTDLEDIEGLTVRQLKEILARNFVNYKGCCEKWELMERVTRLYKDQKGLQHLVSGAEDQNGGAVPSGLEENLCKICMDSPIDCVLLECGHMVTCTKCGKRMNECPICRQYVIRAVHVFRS
UniProt O15211: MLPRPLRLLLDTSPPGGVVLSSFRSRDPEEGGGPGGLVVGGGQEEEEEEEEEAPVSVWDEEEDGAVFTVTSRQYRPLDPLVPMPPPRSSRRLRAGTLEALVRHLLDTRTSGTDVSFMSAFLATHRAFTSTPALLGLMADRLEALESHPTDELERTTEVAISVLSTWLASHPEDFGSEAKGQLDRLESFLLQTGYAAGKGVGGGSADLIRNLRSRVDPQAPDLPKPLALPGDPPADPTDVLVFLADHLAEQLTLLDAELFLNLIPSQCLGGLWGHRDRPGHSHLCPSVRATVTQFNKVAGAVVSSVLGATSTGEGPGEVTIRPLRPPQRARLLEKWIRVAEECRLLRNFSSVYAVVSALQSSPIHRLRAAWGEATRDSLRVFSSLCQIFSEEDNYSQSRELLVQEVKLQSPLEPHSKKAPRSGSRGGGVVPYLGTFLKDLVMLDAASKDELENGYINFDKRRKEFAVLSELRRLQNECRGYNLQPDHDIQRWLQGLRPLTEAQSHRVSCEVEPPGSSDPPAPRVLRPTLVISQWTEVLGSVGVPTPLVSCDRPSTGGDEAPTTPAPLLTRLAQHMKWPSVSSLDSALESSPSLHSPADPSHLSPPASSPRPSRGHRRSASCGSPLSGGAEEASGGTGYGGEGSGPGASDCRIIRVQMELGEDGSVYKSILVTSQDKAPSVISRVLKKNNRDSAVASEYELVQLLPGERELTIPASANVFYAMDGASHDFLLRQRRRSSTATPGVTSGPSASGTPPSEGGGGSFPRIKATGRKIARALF
UniProt P07949, whole entry, looked up: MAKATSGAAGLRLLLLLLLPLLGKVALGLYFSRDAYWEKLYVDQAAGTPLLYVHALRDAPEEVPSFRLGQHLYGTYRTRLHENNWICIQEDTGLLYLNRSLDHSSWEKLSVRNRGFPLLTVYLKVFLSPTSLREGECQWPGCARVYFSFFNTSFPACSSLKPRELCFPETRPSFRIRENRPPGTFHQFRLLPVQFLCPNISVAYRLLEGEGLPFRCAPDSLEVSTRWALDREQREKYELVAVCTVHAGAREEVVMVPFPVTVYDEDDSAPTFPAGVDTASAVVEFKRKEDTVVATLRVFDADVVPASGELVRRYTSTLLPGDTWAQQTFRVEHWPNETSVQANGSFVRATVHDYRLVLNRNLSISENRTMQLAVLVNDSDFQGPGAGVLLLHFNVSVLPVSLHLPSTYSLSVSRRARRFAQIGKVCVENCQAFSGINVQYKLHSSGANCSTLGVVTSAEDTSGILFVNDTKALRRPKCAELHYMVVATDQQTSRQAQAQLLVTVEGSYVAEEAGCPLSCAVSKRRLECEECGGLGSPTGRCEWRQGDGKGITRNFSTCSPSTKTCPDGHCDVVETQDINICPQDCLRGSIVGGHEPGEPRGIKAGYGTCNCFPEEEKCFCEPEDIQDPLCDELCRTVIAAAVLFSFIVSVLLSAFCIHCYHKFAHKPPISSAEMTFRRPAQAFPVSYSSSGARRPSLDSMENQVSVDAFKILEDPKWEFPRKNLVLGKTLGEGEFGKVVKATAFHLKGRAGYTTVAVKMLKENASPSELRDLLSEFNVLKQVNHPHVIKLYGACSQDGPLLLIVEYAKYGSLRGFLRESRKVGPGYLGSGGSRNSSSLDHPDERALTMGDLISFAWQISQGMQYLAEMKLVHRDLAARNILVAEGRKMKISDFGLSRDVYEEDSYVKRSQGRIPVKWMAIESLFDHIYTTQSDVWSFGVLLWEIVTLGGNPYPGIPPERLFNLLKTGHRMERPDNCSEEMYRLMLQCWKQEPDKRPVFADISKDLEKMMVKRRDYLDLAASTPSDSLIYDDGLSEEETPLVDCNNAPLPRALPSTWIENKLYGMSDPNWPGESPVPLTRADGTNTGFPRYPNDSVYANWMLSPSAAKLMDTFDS
UniProt Q06587: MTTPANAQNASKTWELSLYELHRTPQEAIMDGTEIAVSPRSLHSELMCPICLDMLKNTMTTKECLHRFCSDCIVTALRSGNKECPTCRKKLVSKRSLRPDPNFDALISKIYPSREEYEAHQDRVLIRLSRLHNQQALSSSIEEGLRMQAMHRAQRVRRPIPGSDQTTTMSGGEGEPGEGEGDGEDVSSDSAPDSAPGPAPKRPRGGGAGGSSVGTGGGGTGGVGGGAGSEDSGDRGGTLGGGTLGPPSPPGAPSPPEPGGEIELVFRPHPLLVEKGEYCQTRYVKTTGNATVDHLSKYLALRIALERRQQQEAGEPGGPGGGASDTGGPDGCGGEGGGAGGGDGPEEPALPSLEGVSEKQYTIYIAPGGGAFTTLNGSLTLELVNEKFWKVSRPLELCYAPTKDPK
UniProt O15541: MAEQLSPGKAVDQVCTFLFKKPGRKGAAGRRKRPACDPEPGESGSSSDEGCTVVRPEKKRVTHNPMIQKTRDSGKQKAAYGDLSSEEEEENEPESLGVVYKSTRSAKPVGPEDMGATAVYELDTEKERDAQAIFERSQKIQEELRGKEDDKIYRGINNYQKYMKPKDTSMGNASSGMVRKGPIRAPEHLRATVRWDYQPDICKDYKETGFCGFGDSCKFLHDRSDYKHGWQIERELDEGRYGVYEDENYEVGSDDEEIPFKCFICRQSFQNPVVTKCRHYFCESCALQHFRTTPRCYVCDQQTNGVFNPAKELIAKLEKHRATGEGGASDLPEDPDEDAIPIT
UniProt Q15493: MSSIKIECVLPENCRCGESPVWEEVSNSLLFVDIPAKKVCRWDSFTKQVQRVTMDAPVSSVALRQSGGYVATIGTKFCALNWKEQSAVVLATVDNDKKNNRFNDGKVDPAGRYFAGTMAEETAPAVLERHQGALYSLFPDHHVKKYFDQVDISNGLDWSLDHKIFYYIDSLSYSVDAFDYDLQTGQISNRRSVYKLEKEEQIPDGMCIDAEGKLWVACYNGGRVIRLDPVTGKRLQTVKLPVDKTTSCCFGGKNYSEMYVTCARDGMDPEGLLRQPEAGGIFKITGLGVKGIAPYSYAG
UniProt Q9Y3B8: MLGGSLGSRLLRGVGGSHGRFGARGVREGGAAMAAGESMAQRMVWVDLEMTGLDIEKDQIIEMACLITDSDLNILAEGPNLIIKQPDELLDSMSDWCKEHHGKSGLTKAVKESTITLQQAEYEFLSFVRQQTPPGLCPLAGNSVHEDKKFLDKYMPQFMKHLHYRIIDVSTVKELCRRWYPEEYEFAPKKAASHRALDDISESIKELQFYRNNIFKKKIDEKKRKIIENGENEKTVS
UniProt P84095: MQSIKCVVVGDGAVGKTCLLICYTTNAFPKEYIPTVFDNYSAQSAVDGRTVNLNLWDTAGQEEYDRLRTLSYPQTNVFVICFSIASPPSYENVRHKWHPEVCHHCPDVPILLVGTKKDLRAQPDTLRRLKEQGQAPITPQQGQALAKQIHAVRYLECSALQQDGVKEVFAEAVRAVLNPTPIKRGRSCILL
UniProt Q9BWE0: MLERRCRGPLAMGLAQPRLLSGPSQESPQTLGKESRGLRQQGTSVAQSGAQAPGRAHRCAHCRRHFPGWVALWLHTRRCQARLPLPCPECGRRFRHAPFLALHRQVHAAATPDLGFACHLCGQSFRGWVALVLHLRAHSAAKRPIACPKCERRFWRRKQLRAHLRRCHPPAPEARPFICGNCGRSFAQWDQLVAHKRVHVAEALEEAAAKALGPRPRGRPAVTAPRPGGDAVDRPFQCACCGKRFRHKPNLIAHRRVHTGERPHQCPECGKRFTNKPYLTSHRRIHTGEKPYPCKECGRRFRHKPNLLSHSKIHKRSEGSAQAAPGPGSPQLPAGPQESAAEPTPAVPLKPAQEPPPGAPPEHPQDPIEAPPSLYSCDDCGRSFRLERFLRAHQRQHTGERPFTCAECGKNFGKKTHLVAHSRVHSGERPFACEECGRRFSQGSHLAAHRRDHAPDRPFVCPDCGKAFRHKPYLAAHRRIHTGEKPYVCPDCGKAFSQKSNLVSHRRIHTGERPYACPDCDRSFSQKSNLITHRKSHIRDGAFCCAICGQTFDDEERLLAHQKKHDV
UniProt O75792: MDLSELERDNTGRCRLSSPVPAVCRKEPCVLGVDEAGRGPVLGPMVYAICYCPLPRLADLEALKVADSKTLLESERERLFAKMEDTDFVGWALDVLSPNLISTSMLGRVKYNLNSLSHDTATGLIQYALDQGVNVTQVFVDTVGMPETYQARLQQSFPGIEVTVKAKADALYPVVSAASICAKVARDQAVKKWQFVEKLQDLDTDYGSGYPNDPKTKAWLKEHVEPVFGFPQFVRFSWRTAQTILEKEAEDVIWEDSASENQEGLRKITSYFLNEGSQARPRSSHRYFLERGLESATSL

Each target was assayed with Cc1cc(ccc1-c1ccccc1)C(=O)N1CCCN(CC1)C(=O)CCl [compound 10] (assay: probe-labelled cysteine peptide fold change vs DMSO (competition) (log2 fold change); higher = less target engagement (more negative = stronger competition)). Settings: 10 µM; THP-1; incubation time: 4 h.
“RFC3_P40938_230+233_ALLMCEACR (UniProt P40938)” was tested, and the “probe-labelled cysteine peptide fold change” value was -0.0104.
In the case of “RIOX1_Q9H6W3_294_ALPAAAWSLYQAGCSLR (UniProt Q9H6W3)”, the “probe-labelled cysteine peptide fold change” value is reported as 0.126.
With “RICTOR_Q6R327_778_TISSEALDILDEACEDK (UniProt Q6R327)” the “probe-labelled cysteine peptide fold change” value was -0.0713.
With “RIC1_Q4ADV7_818_EQLEVLFPFCVVER (UniProt Q4ADV7)” the “probe-labelled cysteine peptide fold change” value was 0.144.
In the case of “RNF13_O43567_266_CVDPWLTK (UniProt O43567)”, the “probe-labelled cysteine peptide fold change” value is reported as -0.284.
In the case of “RNF114_Q9Y508_32_FTCPVCLEVYEK (UniProt Q9Y508)”, the “probe-labelled cysteine peptide fold change” value is reported as -0.0142.
In the case of “RLF_Q13129_587_MHMEDGIYTCPVCIK (UniProt Q13129)”, the “probe-labelled cysteine peptide fold change” value is reported as 0.0157.
“RECQL_P46063_471_RVLMAQHFDEVWNSEACNK (UniProt P46063)” was tested, and the “probe-labelled cysteine peptide fold change” value was 0.0107.
In the case of “RGS14_O43566_183_ECLLAEAEGR (UniProt O43566)”, the “probe-labelled cysteine peptide fold change” value is reported as -0.0353.
In the case of “RIF1_Q5UIP0_312_SLIDNFALNPDILCSAK (UniProt Q5UIP0)”, the “probe-labelled cysteine peptide fold change” value is reported as -0.213.
“RIF1_Q5UIP0_2450_LSCMANSVIK (UniProt Q5UIP0)” was tested, and the “probe-labelled cysteine peptide fold change” value was -0.0942.
“RFC5_P40937_238_VTEETVYTCTGHPLK (UniProt P40937)” was tested, and the “probe-labelled cysteine peptide fold change” value was 0.127.
In the case of “RENBP_P51606_220_YAELGDWCAR (UniProt P51606)”, the “probe-labelled cysteine peptide fold change” value is reported as 0.257.
In the case of “REL_Q04864_143_QLNDIEDCDLNVVR (UniProt Q04864)”, the “probe-labelled cysteine peptide fold change” value is reported as 0.225.
In the case of “RFC3_P40938_193+200_VPAPSIEDICHVLSTVCK (UniProt P40938)”, the “probe-labelled cysteine peptide fold change” value is reported as 0.312.
In the case of “RFFL_Q8WZ73_337_ICMDSPIDCVLLECGHMVTCTK (UniProt Q8WZ73)”, the “probe-labelled cysteine peptide fold change” value is reported as 0.195.
With “RFFL_Q8WZ73_123_DLRDYLSLHDISTEMCR (UniProt Q8WZ73)” the “probe-labelled cysteine peptide fold change” value was -0.0365.
In the case of “RGL2_O15211_284_DRPGHSHLCPSVR (UniProt O15211)”, the “probe-labelled cysteine peptide fold change” value is reported as 0.0319.
With RET_P07949_987_LMLQCWK (UniProt P07949) the “probe-labelled cysteine peptide fold change” value was 0.0807.
“RING1_Q06587_69_FCSDCIVTALR (UniProt Q06587)” was tested, and the “probe-labelled cysteine peptide fold change” value was 0.0116.
“RMND5A_Q9H871_25_FSGYGQLCER (UniProt Q9H871)” was tested, and the “probe-labelled cysteine peptide fold change” value was 0.0146.
In the case of “RING1_Q06587_72_FCSDCIVTALR (UniProt Q06587)”, the “probe-labelled cysteine peptide fold change” value is reported as 0.348.
In the case of “RHOT2_Q8IXI1_297_RFGYSDALELTADYLSPLIHVPPGCSTELNHLGYQFVQR (UniProt Q8IXI1)”, the “probe-labelled cysteine peptide fold change” value is reported as -0.206.
In the case of “RNF113A_O15541_285_HYFCESCALQHFR (UniProt O15541)”, the “probe-labelled cysteine peptide fold change” value is reported as 0.151.
In the case of “RIOK3_O14730_346_AGIPCPTVVLLKK (UniProt O14730)”, the “probe-labelled cysteine peptide fold change” value is reported as -0.105.
With “RIF1_Q5UIP0_1718_TFQTLECQHK (UniProt Q5UIP0)” the “probe-labelled cysteine peptide fold change” value was -0.105.
In the case of “RGN_Q15493_262_NYSEMYVTCAR (UniProt Q15493)”, the “probe-labelled cysteine peptide fold change” value is reported as -0.121.
In the case of “REXO2_Q9Y3B8_137_QQTPPGLCPLAGNSVHEDK (UniProt Q9Y3B8)”, the “probe-labelled cysteine peptide fold change” value is reported as 0.2.
In the case of “RIF1_Q5UIP0_1865_TVGPCLGDSK (UniProt Q5UIP0)”, the “probe-labelled cysteine peptide fold change” value is reported as -0.314.
“RHOG_P84095_105_WHPEVCHHCPDVPILLVGTKK (UniProt P84095)” was tested, and the “probe-labelled cysteine peptide fold change” value was 0.0223.
For “RHOG_P84095_102_WHPEVCHHCPDVPILLVGTK (UniProt P84095)”, the “probe-labelled cysteine peptide fold change” value was 0.159.
For “REPIN1_Q9BWE0_269_VHTGERPHQCPECGKR (UniProt Q9BWE0)”, the “probe-labelled cysteine peptide fold change” value was 0.193.
“REXO4_Q9GZR2_382_ILGLQVQQAEHCSIQDAQAAMR (UniProt Q9GZR2)” was tested, and the “probe-labelled cysteine peptide fold change” value was -0.131.
With “RENBP_P51606_135_TIFSECFYTMAMNELWR (UniProt P51606)” the “probe-labelled cysteine peptide fold change” value was 0.185.
For “RNASET2_O00584_55_IQNDCR (UniProt O00584)”, the “probe-labelled cysteine peptide fold change” value was -0.153.
“RFTN1_Q14699_494_AGDMGNCVSGQQQEGGVSEEMK (UniProt Q14699)” was tested, and the “probe-labelled cysteine peptide fold change” value was -0.279.
In the case of “RNASEH2A_O75792_24_LSSPVPAVCR (UniProt O75792)”, the “probe-labelled cysteine peptide fold change” value is reported as 0.0827.
“RENBP_P51606_396_CLAMCEEMLGALLSR (UniProt P51606)” was tested, and the “probe-labelled cysteine peptide fold change” value was 0.0603.

Same assay, conditions: 50 µM; THP-1; incubation time: 4 h
With “RFC3_P40938_230+233_ALLMCEACR (UniProt P40938)” the “probe-labelled cysteine peptide fold change” value was -0.288.
For “RIOX1_Q9H6W3_294_ALPAAAWSLYQAGCSLR (UniProt Q9H6W3)”, the “probe-labelled cysteine peptide fold change” value was 0.237.
For “RICTOR_Q6R327_778_TISSEALDILDEACEDK (UniProt Q6R327)”, the “probe-labelled cysteine peptide fold change” value was 0.324.
For “RIC1_Q4ADV7_818_EQLEVLFPFCVVER (UniProt Q4ADV7)”, the “probe-labelled cysteine peptide fold change” value was 0.113.
For “RNF13_O43567_266_CVDPWLTK (UniProt O43567)”, the “probe-labelled cysteine peptide fold change” value was -0.314.
In the case of “RNF114_Q9Y508_32_FTCPVCLEVYEK (UniProt Q9Y508)”, the “probe-labelled cysteine peptide fold change” value is reported as -0.158.
For “RLF_Q13129_587_MHMEDGIYTCPVCIK (UniProt Q13129)”, the “probe-labelled cysteine peptide fold change” value was 0.066.
With “RECQL_P46063_471_RVLMAQHFDEVWNSEACNK (UniProt P46063)” the “probe-labelled cysteine peptide fold change” value was -0.0354.
For “RGS14_O43566_183_ECLLAEAEGR (UniProt O43566)”, the “probe-labelled cysteine peptide fold change” value was 0.16.
In the case of “RIF1_Q5UIP0_312_SLIDNFALNPDILCSAK (UniProt Q5UIP0)”, the “probe-labelled cysteine peptide fold change” value is reported as 0.312.
“RIF1_Q5UIP0_2450_LSCMANSVIK (UniProt Q5UIP0)” was tested, and the “probe-labelled cysteine peptide fold change” value was -0.14.
“RFC5_P40937_238_VTEETVYTCTGHPLK (UniProt P40937)” was tested, and the “probe-labelled cysteine peptide fold change” value was -0.0928.
For “RENBP_P51606_220_YAELGDWCAR (UniProt P51606)”, the “probe-labelled cysteine peptide fold change” value was -0.0127.
“REL_Q04864_143_QLNDIEDCDLNVVR (UniProt Q04864)” was tested, and the “probe-labelled cysteine peptide fold change” value was 0.0252.
With “RFC3_P40938_193+200_VPAPSIEDICHVLSTVCK (UniProt P40938)” the “probe-labelled cysteine peptide fold change” value was -0.0582.
In the case of “RFFL_Q8WZ73_337_ICMDSPIDCVLLECGHMVTCTK (UniProt Q8WZ73)”, the “probe-labelled cysteine peptide fold change” value is reported as -0.165.
“RFFL_Q8WZ73_123_DLRDYLSLHDISTEMCR (UniProt Q8WZ73)” was tested, and the “probe-labelled cysteine peptide fold change” value was -0.102.
In the case of “RGL2_O15211_284_DRPGHSHLCPSVR (UniProt O15211)”, the “probe-labelled cysteine peptide fold change” value is reported as -0.00699.
For RET_P07949_987_LMLQCWK (UniProt P07949), the “probe-labelled cysteine peptide fold change” value was 0.122.
With “RING1_Q06587_69_FCSDCIVTALR (UniProt Q06587)” the “probe-labelled cysteine peptide fold change” value was 0.199.
In the case of “RMND5A_Q9H871_25_FSGYGQLCER (UniProt Q9H871)”, the “probe-labelled cysteine peptide fold change” value is reported as -0.016.
For “RING1_Q06587_72_FCSDCIVTALR (UniProt Q06587)”, the “probe-labelled cysteine peptide fold change” value was 0.0847.
For “RHOT2_Q8IXI1_297_RFGYSDALELTADYLSPLIHVPPGCSTELNHLGYQFVQR (UniProt Q8IXI1)”, the “probe-labelled cysteine peptide fold change” value was -0.29.
For “RNF113A_O15541_285_HYFCESCALQHFR (UniProt O15541)”, the “probe-labelled cysteine peptide fold change” value was 0.0395.
For “RIOK3_O14730_346_AGIPCPTVVLLKK (UniProt O14730)”, the “probe-labelled cysteine peptide fold change” value was -0.596.
With “RIF1_Q5UIP0_1718_TFQTLECQHK (UniProt Q5UIP0)” the “probe-labelled cysteine peptide fold change” value was -0.217.
In the case of “RGN_Q15493_262_NYSEMYVTCAR (UniProt Q15493)”, the “probe-labelled cysteine peptide fold change” value is reported as -0.384.
For “REXO2_Q9Y3B8_137_QQTPPGLCPLAGNSVHEDK (UniProt Q9Y3B8)”, the “probe-labelled cysteine peptide fold change” value was 0.262.
For “RIF1_Q5UIP0_1865_TVGPCLGDSK (UniProt Q5UIP0)”, the “probe-labelled cysteine peptide fold change” value was -0.122.
“RHOG_P84095_105_WHPEVCHHCPDVPILLVGTKK (UniProt P84095)” was tested, and the “probe-labelled cysteine peptide fold change” value was -0.622.
“RHOG_P84095_102_WHPEVCHHCPDVPILLVGTK (UniProt P84095)” was tested, and the “probe-labelled cysteine peptide fold change” value was 0.0491.
For “REPIN1_Q9BWE0_269_VHTGERPHQCPECGKR (UniProt Q9BWE0)”, the “probe-labelled cysteine peptide fold change” value was -0.0358.
With “REXO4_Q9GZR2_382_ILGLQVQQAEHCSIQDAQAAMR (UniProt Q9GZR2)” the “probe-labelled cysteine peptide fold change” value was -0.51.
For “RENBP_P51606_135_TIFSECFYTMAMNELWR (UniProt P51606)”, the “probe-labelled cysteine peptide fold change” value was -0.158.
With “RNASET2_O00584_55_IQNDCR (UniProt O00584)” the “probe-labelled cysteine peptide fold change” value was 0.236.
With “RFTN1_Q14699_494_AGDMGNCVSGQQQEGGVSEEMK (UniProt Q14699)” the “probe-labelled cysteine peptide fold change” value was -0.521.
In the case of “RNASEH2A_O75792_24_LSSPVPAVCR (UniProt O75792)”, the “probe-labelled cysteine peptide fold change” value is reported as -0.112.
In the case of “RENBP_P51606_396_CLAMCEEMLGALLSR (UniProt P51606)”, the “probe-labelled cysteine peptide fold change” value is reported as 0.188.
